Test results reported in US10112913B2, “Substituted [1,2,4]triazole and imidazole compounds as fungicides” (BASF SE, priority 2014, dated 2018).
Some of these results come from one statement about several compounds together. For some assays here: For at least one compound, name, drawing or mass did not settle the structure.

Key:
Assay type in all cases: cell-based
Alternaria solani = test: Activity against early blight caused by Alternaria solani (Alteso), microtiter test; details: 31 ppm; Alternaria solani spore suspension; 18° C.; 405 nm, 7 days after inoculation
Pyricularia oryzae = details: 31 ppm; Pyricularia oryzae spore suspension; 18° C.; 405 nm, 7 days after inoculation
Septoria tritici = test: Activity against leaf blotch on wheat caused by Septoria tritici (Septtr), microtiter test; details: 31 ppm; Septoria tritici spore suspension; 18° C.; 405 nm, 7 days after inoculation
Botrytis cinerea = test: Activity against the grey mold Botrytis cinerea in the microtiterplate test (Botrci); details: 31 ppm; Botrytis cinerea spore suspension; 18° C.; 405 nm, 7 days after inoculation
Pyrenophora teres = test: Activity against net blotch Pyrenophora teres on barley in the microtiter test (Pyrnte); details: 31 ppm; Pyrenophora teres spore suspension; 18° C.; 405 nm, 7 days after inoculation
Fusarium culmorum = test: Activity against root rot caused by Fusarium culmorum (Fusacu), microtiter test; details: 31 ppm; Fusarium culmorum spore suspension; 18° C.; 405 nm, 7 days after inoculation

Structure (SMILES) | growth (relative growth of the pathogen vs active compound-free control = 100%) (Pyricularia oryzae) | growth (relative growth of the pathogen vs active compound-free control = 100%) (Fusarium culmorum) | other results
COCC#Cc1ccc(C(O)(Cn2cncn2)C(C)(C)C)cc1 (racemic) [I.C-6] | ≤ 20% | – | growth (relative growth of the pathogen vs active compound-free control = 100%) (Alternaria solani): ≤ 13%; growth (relative growth of the pathogen vs active compound-free control = 100%) (Septoria tritici): ≤ 15%; growth (relative growth of the pathogen vs active compound-free control = 100%) (Botrytis cinerea): ≤ 13%
CCCC#Cc1ccc(C(O)(Cn2cncn2)C(C)(C)C)cc1 (racemic) [I.C-7] | ≤ 20% | – | growth (relative growth of the pathogen vs active compound-free control = 100%) (Alternaria solani): ≤ 13%; growth (relative growth of the pathogen vs active compound-free control = 100%) (Septoria tritici): ≤ 15%; growth (relative growth of the pathogen vs active compound-free control = 100%) (Botrytis cinerea): ≤ 13%
CC(C)(C)C#Cc1ccc(C(O)(Cn2cncn2)C(C)(C)C)cc1 (racemic) [I.C-8] | ≤ 20% | – | growth (relative growth of the pathogen vs active compound-free control = 100%) (Pyrenophora teres): ≤ 12%
CC(C)(C)C(O)(Cn1cncn1)c1ccc(C#CC(F)(F)F)cc1 (racemic) [I.C-12] | ≤ 20% | – | growth (relative growth of the pathogen vs active compound-free control = 100%) (Septoria tritici): ≤ 15%; growth (relative growth of the pathogen vs active compound-free control = 100%) (Botrytis cinerea): ≤ 13%
CC(O)(Cn1cncn1)c1ccc(C#CCCCCl)cc1C(F)(F)F (centres unmarked) [Compound I-2] | ≤ 9% | – | –
CCCC#Cc1ccc(C(C)(O)Cn2cncn2)c(C(F)(F)F)c1 (centres unmarked) [Compound I-5] | ≤ 9% | ≤ 17% | –
CC(C)CC#Cc1ccc(C(C)(O)Cn2cncn2)c(C(F)(F)F)c1 (centres unmarked) [Compound I-7] | ≤ 9% | ≤ 17% | –
CCCCC#Cc1ccc(C(C)(O)Cn2cncn2)c(C(F)(F)F)c1 (centres unmarked) [Compound I-8] | ≤ 9% | ≤ 17% | –
CC(C)OCC#Cc1ccc(C(C)(O)Cn2cncn2)c(C(F)(F)F)c1 (centres unmarked) [Compound I-11] | ≤ 9% | – | –
COC(C)(C)C#Cc1ccc(C(C)(O)Cn2cncn2)c(C(F)(F)F)c1 (centres unmarked) [Compound I-12] | ≤ 9% | – | –
COCC#Cc1ccc(C(O)(Cn2cncn2)C2CC2)c(Cl)c1 (centres unmarked) [Compound I-16] | ≤ 9% | ≤ 17% | –
CCCC#Cc1ccc(C(O)(Cn2cncn2)C2CC2)c(Cl)c1 (centres unmarked) [Compound I-17] | ≤ 9% | ≤ 17% | –
CC(C)(C)C#Cc1ccc(C(O)(Cn2cncn2)C2CC2)c(Cl)c1 (centres unmarked) [Compound I-18] | ≤ 9% | ≤ 17% | –
CC(C)CC#Cc1ccc(C(O)(Cn2cncn2)C2CC2)c(Cl)c1 (centres unmarked) [Compound I-19] | ≤ 9% | ≤ 17% | –
CC(O)(Cn1cncn1)c1ccc(C#CCOc2ccccc2)cc1C(F)(F)F (centres unmarked) [Compound I-20] | ≤ 9% | – | –
CC(O)(Cn1cncn1)c1ccc(C#CC(F)(F)F)cc1C(F)(F)F (centres unmarked) [Compound I-22] | ≤ 9% | – | –
OC(Cn1cncn1)(c1ccc(C#CBr)cc1Cl)C1CC1 (centres unmarked) [Compound I-23] | ≤ 9% | ≤ 17% | –
CCC(O)(C#Cc1ccc(C(O)(Cn2cncn2)C2CC2)c(Cl)c1)CC (centres unmarked) [Compound I-25] | ≤ 9% | ≤ 17% | –
CCC(O)(Cn1cncn1)c1ccc(C#CCCCO)cc1Cl (centres unmarked) [Compound I-27] | ≤ 9% | – | –
CCC(O)(Cn1cncn1)c1ccc(C#CCOc2ccccc2)cc1Cl (centres unmarked) [Compound I-28] | ≤ 9% | ≤ 17% | –
CCC(O)(Cn1cncn1)c1ccc(C#CCCCCl)cc1Cl (centres unmarked) [Compound I-29] | ≤ 9% | ≤ 17% | –
CCC(O)(Cn1cncn1)c1ccc(C#CC(C)O)cc1Cl (centres unmarked) [Compound I-31] | ≤ 9% | – | –
CCCC#Cc1ccc(C(O)(CC)Cn2cncn2)c(Cl)c1 (centres unmarked) [Compound I-32] | ≤ 9% | ≤ 17% | –
CCC(O)(Cn1cncn1)c1ccc(C#CC(C)(C)C)cc1Cl (centres unmarked) [Compound I-33] | ≤ 9% | ≤ 17% | –
CCCCC#Cc1ccc(C(O)(CC)Cn2cncn2)c(Cl)c1 (centres unmarked) [Compound I-34] | ≤ 9% | ≤ 17% | –
OC(Cn1cncn1)(c1ccc(C#CCl)cc1Cl)C1CC1 (centres unmarked) [Compound I-35] | ≤ 9% | ≤ 17% | –
OC(Cn1cncn1)(c1ccc(C#CC(F)(F)F)cc1Cl)C1CC1 (centres unmarked) [Compound I-36] | ≤ 9% | – | –
CCC(O)(Cn1cncn1)c1ccc(C#CC(F)(F)F)cc1Cl (centres unmarked) [Compound I-39] | ≤ 9% | – | –
CC(C)CC#Cc1ccc(C(O)(Cn2cncn2)C(C)(C)C)cc1 (centres unmarked) [I.C-2] | ≤ 20% | – | growth (relative growth of the pathogen vs active compound-free control = 100%) (Alternaria solani): ≤ 13%; growth (relative growth of the pathogen vs active compound-free control = 100%) (Pyrenophora teres): ≤ 12%; growth (relative growth of the pathogen vs active compound-free control = 100%) (Botrytis cinerea): ≤ 13%
